In US10292960B2, “Anticancer agent comprising aminoacetonitrile compound as active ingredient” (PITNEY PHARMACEUTICALS PTY LIMITED, priority 2013, dated 2019):
Some of these results come from one statement about several compounds together.

Legend:
Type in all cases: cell-based
Details in all cases: 30 μM test substance, cultured 72 hr, Alamar Blue
[1] = system: human brain glioblastoma cell line (U-87); test: U-87 cell growth inhibitory activity test
[2] = system: human oophoroma cell line (OVCAR-3); test: OVCAR-3 cell growth inhibitory activity test
[3] = system: human neuroepithelioma cell line (SK-N-MC); test: SK-N-MC cell growth inhibitory activity test

N#CC(COc1ccc(Cl)cc1)NC(=O)c1ccc(C(F)(F)F)cc1 (racemic) [1-5]
not less than 50%: cell growth inhibitory effect (inhibition ratio) against U-87 [1] | cell growth inhibitory effect (inhibition ratio) against OVCAR-3 [2] | cell growth inhibitory effect (inhibition ratio) against SK-N-MC [3]

CC(C)(C)C(C#N)(COc1ccc(Cl)cc1)NC(=O)c1ccc(C(F)(F)F)cc1 (racemic) [1-6]
not less than 50%: cell growth inhibitory effect (inhibition ratio) against U-87 [1] | cell growth inhibitory effect (inhibition ratio) against OVCAR-3 [2] | cell growth inhibitory effect (inhibition ratio) against SK-N-MC [3]

COc1cc(C(=O)NC(C)(C#N)COc2ccc(SC(F)(F)F)cc2)cc(Cl)n1 (stereo not drawn) [5-21]
not less than 50%: cell growth inhibitory effect (inhibition ratio) against U-87 [1] | cell growth inhibitory effect (inhibition ratio) against OVCAR-3 [2] | cell growth inhibitory effect (inhibition ratio) against SK-N-MC [3]

CN(CC(C)(C#N)NC(=O)c1ccc(SC(F)(F)F)cc1)c1ccc(F)cc1 (stereo not drawn) [5-159]
not less than 50%: cell growth inhibitory effect (inhibition ratio) against U-87 [1] | cell growth inhibitory effect (inhibition ratio) against OVCAR-3 [2] | cell growth inhibitory effect (inhibition ratio) against SK-N-MC [3]

Cn1nc(OC(F)F)cc1C(=O)NC(C)(C#N)COc1ccc(SC(F)(F)F)cc1 (stereo not drawn) [5-75]
not less than 50%: cell growth inhibitory effect (inhibition ratio) against U-87 [1] | cell growth inhibitory effect (inhibition ratio) against OVCAR-3 [2] | cell growth inhibitory effect (inhibition ratio) against SK-N-MC [3]

CC(C#N)(COc1ccc(C(F)(F)F)cc1)NC(=O)Cc1ccc(C(F)(F)C(F)(F)C(F)(F)F)cc1 (stereo not drawn) [2-109]
not less than 50%: cell growth inhibitory effect (inhibition ratio) against U-87 [1] | cell growth inhibitory effect (inhibition ratio) against OVCAR-3 [2] | cell growth inhibitory effect (inhibition ratio) against SK-N-MC [3]

CC(C)(C)C#Cc1ccc(OCC(C)(C#N)NC(=O)Cc2ccc(C(F)(F)F)cc2)cc1 (stereo not drawn) [2-120]
not less than 50%: cell growth inhibitory effect (inhibition ratio) against U-87 [1] | cell growth inhibitory effect (inhibition ratio) against OVCAR-3 [2] | cell growth inhibitory effect (inhibition ratio) against SK-N-MC [3]

CCCCCCCCOCC(C)(C#N)NC(=O)Cc1ccc(C(F)(F)F)cc1 (stereo not drawn) [4-1]
not less than 50%: cell growth inhibitory effect (inhibition ratio) against U-87 [1] | cell growth inhibitory effect (inhibition ratio) against OVCAR-3 [2] | cell growth inhibitory effect (inhibition ratio) against SK-N-MC [3]

CC(C#N)(COc1ccc(Cl)cc1)NC(=O)Cc1ccc(SC(F)(F)C(F)(F)C(F)(F)F)cc1 (stereo not drawn) [2-114]
not less than 50%: cell growth inhibitory effect (inhibition ratio) against U-87 [1] | cell growth inhibitory effect (inhibition ratio) against OVCAR-3 [2] | cell growth inhibitory effect (inhibition ratio) against SK-N-MC [3]

CCCC(C#N)(COc1ccc(Cl)cc1)NC(=O)Cc1ccc(Cl)cc1 (stereo not drawn) [2-84]
not less than 50%: cell growth inhibitory effect (inhibition ratio) against U-87 [1] | cell growth inhibitory effect (inhibition ratio) against OVCAR-3 [2] | cell growth inhibitory effect (inhibition ratio) against SK-N-MC [3]

CC(C#N)(COc1ccc(Cl)cc1)NC(=O)c1cnc(Cl)c(Cl)c1 (racemic) [1-41]
not less than 50%: cell growth inhibitory effect (inhibition ratio) against U-87 [1] | cell growth inhibitory effect (inhibition ratio) against OVCAR-3 [2] | cell growth inhibitory effect (inhibition ratio) against SK-N-MC [3]

CC(C#N)(COc1ccc(SC(F)(F)F)cc1)NC(=O)c1cnc(-c2ccncc2)nc1 (stereo not drawn) [6-12]
not less than 50%: cell growth inhibitory effect (inhibition ratio) against U-87 [1] | cell growth inhibitory effect (inhibition ratio) against OVCAR-3 [2] | cell growth inhibitory effect (inhibition ratio) against SK-N-MC [3]

Cc1nc(-c2ccc(Cl)cc2)sc1C(=O)NC(C)(C#N)COc1ccc(SC(F)(F)F)cc1 (stereo not drawn) [6-30]
not less than 50%: cell growth inhibitory effect (inhibition ratio) against U-87 [1] | cell growth inhibitory effect (inhibition ratio) against OVCAR-3 [2] | cell growth inhibitory effect (inhibition ratio) against SK-N-MC [3]

CC(C#N)(COc1ccc(C(F)(F)F)cc1)NC(=O)c1cnc(Cl)c(Cl)c1 (racemic) [1-42]
not less than 50%: cell growth inhibitory effect (inhibition ratio) against U-87 [1] | cell growth inhibitory effect (inhibition ratio) against OVCAR-3 [2] | cell growth inhibitory effect (inhibition ratio) against SK-N-MC [3]

Cc1ccc(-c2nc(C)c(C(=O)NC(C)(C#N)COc3ccc(SC(F)(F)F)cc3)s2)cc1 (stereo not drawn) [6-27]
not less than 50%: cell growth inhibitory effect (inhibition ratio) against U-87 [1] | cell growth inhibitory effect (inhibition ratio) against OVCAR-3 [2] | cell growth inhibitory effect (inhibition ratio) against SK-N-MC [3]

CC(C#N)(COc1ccc(C(F)(F)C(F)(F)C(F)(F)F)cc1)NC(=O)Cc1ccc(Cl)cc1 (stereo not drawn) [2-110]
not less than 50%: cell growth inhibitory effect (inhibition ratio) against U-87 [1] | cell growth inhibitory effect (inhibition ratio) against OVCAR-3 [2] | cell growth inhibitory effect (inhibition ratio) against SK-N-MC [3]

CC(C#N)(COc1ccccc1-c1ccccc1)NC(=O)Cc1ccc(SC(F)(F)F)cc1 (stereo not drawn) [2-136]
not less than 50%: cell growth inhibitory effect (inhibition ratio) against U-87 [1] | cell growth inhibitory effect (inhibition ratio) against OVCAR-3 [2] | cell growth inhibitory effect (inhibition ratio) against SK-N-MC [3]
